Square brackets hold non-standard residues; d marks the D form. Ends that are not written are not given here. pS = N[C@@H](COP(=O)(O)O)C(=O)O
Test: Binding of peptide to particles (UV absorption at 280 nm)
Assay type: physicochemical
Conditions: for peptide content after improved functionalization: SBA educt fourfold, reaction time doubled; for increase in peptide binding: compared to Karawacka et al. (2018)

Row | Substance | peptide content after improved functionalization | increase in peptide binding | peptide bound to SPION^HAp via C-terminal phosphoserine (borate buffer pH 8.5, 24h, 700 rpm, 25° C.)
1 | RKQGRVEVLYRASWGTVC [SPP04] | over 0.085 μmol peptides/mg Fe | 37% | 
2 | RKQGRVEILYRGSWGTVC [SPP19] | 0.082 μmol peptides/mg Fe | 42% | 
3 | RKQGRVEVLYRASWGTV[pS] [SPPpS] |  |  | 0.03 μmol/mg Fe
